In the data set the test system is NCgl0581 (LysR-type transcriptional regulator of serE). The data set can be described thus: EMSA. As to conditions: Viagene non-radioactive EMSA kit with biotin probes, per manufacturer's instructions; pH and temperature not stated; protein in an extract. On the technique in general: In EMSA bound probe runs differently from free probe, usually more slowly.

Construct, isoform or probe ends are uncertain for at least one entry. Results from cells or extracts need not show a direct contact.

Regarding “AAACAGCCAACTATAGTTAAGTAATA (double strand) [BIO-JNZXM-TP/BIO-JNZXM-BM (serE upstream region probe)]”, the binding result was “binds”.

(Values after paper PMC7260847.)
